Measurements taken from paper PMC4066782, “The telomerase inhibitor Gno1p/PINX1 activates the helicase Prp43p during ribosome biogenesis” (Nucleic Acids Research, 2014).
No constants are given. Whether binding was seen depends on the method and setting. Binding seen in cells or lysates may run through a third protein. Some binding calls cover weakened binding; strength is not graded here. Where a sequence is shown, tags or fusion partners need not be part of it.

Target: T1, Pwp2p-TAP (S. cerevisiae) (UniProt P25635)
T1 sequence: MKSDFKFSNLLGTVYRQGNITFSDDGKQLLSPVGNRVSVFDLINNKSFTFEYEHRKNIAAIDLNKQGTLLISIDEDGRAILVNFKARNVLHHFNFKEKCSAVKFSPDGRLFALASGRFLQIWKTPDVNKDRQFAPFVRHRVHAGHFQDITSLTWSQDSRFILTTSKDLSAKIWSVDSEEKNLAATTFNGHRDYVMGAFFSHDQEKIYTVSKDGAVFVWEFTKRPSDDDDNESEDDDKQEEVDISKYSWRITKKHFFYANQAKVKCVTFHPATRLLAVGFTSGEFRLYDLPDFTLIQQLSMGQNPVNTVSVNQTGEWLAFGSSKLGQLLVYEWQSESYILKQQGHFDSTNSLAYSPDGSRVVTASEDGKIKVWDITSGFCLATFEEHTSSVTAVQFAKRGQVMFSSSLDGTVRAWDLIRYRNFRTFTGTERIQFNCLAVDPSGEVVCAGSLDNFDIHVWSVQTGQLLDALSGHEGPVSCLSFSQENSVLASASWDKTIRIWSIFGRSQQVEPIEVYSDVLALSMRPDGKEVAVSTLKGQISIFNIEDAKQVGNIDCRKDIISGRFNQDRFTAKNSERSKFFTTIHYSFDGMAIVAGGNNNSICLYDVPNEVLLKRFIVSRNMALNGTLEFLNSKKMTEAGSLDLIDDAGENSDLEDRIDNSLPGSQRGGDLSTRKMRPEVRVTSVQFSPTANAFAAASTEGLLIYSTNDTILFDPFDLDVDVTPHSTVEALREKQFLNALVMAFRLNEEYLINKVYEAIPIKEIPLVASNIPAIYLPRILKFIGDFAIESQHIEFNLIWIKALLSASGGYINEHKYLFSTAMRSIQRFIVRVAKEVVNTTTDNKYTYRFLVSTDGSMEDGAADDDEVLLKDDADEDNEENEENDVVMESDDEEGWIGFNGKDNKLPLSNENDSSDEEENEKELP
Assay: co-IP; IgG sepharose beads precipitate the TAP- or ZZ-tagged protein from total yeast extracts; HA-tagged protein detected by western with anti-HA antibodies

binding: binds
B1: Gno1p-HA (GNO1-HA-TRP1 cassette, made with plasmid pFA6a-3HA-TRP1) (protein, UniProt P53335 1-271)
chain: MGLAATRTKQRFGLDPRNTAWSNDTSRFGHQFLEKFGWKPGMGLGLSPMNSNTSHIKVSIKDDNVGLGAKLKRKDKKDEFDNGECAGLDVFQRILGRLNGKESKISEELDTQRKQKIIDGKWGIHFVKGEVLASTWDPKTHKLRNYSNAKKRKREGDDSEDEDDDDKEDKDSDKKKHKKHKKHKKDKKKDKKDKKEHKKHKKEEKRLKKEKRAEKTKETKKTSKLKSSESASNIPDAVNTRLSVRSKWIKQKRAALMDSKALNEIFMITND
